Measurements from paper PMC11468809, “An Outer Membrane Vesicle‐Based Permeation Assay (OMPA) for Assessing Bacterial Bioavailability” (Advanced Healthcare Materials, 2021).

Conditions: not told
Description: 30 µL of the OMV or liposome suspension were given on top of membrane filters of a 96‐well filter plate (MultiScreen 96‐well filter plates with 0.4 µm PCTE membrane). Afterwards, filters were dried at 37°C inside a Memmert UF55 universal oven (fan at 100%). This process was repeated another two times. A six‐fold coating procedure was only followed for SEM‐imaging purposes. For permeation studies, the obtained coatings were covered with 40 µl of 0.5% w/v agarose solution using a direct diplacement pipette. Prior to permeation studies, the bottom of the coated filter was also coated with a thin film of 0.5% w/v agarose using a small brush.
Coated wells were incubated on the apical and basolateral side for 30 min with PBS (pH 7.4) at 37°C while shaken at 180 rpm. […] The absorbance of these dilutions was measured in a receiver plate using a Tecan Infinite 200 PRO (Tecan Trading AG, Maennedorf, Switzerland) plate reader. (Table S1, Supporting Information) 300 µL of fresh PBS were given into the acceptor wells of the receiver plate followed by absorbance measurements. Donor and acceptor plates were reassembled, incubated, and disassembled after 10, 20, 30, 45, 60, 90, and 120 min to measure the absorbance in the acceptor wells.

permeation compared with the OMV-based models: permeate much better
Structure (SMILES): CCC[C@@H]1C[C@@H](C(=O)N[C@@H]([C@H]2O[C@H](SC)[C@H](O)[C@@H](O)[C@H]2O)[C@H](C)Cl)N(C)C1 [clindamycin]
